Measurements reported in PubChem BioAssay AID1259424 (University of Nebraska Medical Center, 2018)
Screen: 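Find knockdowns that reproduce the expression shifts seen after KSR1 loss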 (primary screen). System: human HCT116 colon cancer cells. Knock-down reagent: siRNA pool against human genes, 50 nM. Read-out: 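Log2 levels of six mRNAs (branched-DNA multiplex), adjusted by two reference genes and the non-targeting median, then scored against the average KSR1 knockdown pattern as Pearson r and euclidean distance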. Reading the numbers: mean correlation with KSR1 profile and KSR1 correlation: higher = expression change more like KSR1 knockdown; mean distance from KSR1 profile: higher = expression change less like KSR1 knockdown.
Shown is a random part of about 14,000 deposited reagents. 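Higher correlation or smaller distance means closer resemblance to KSR1 loss; control wells, including KSR1 knockdowns, recur on many plates.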 A reagent listed more than once was tested more than once; the source does not tell the runs apart. Further read-outs or replicates are left out here. Not stated in the record: the time to read-out.

gene knocked down | mean correlation with KSR1 profile | mean distance from KSR1 profile | KSR1 correlation, replicate 1
MPDZ (multiple PDZ domain crumbs cell polarity complex component) | -0.417 | 1.85 | -0.497
RARS2 (arginyl-tRNA synthetase 2, mitochondrial) | 0.328 | 3.26 | 0.388
ISG15 (ISG15 ubiquitin like modifier) | -0.256 | 1.61 | -0.323
SORL1 (sortilin related receptor 1) | -0.207 | 4.18 | -0.125
NPY2R (neuropeptide Y receptor Y2) | 0.785 | 1.48 | 0.779
DLG3 (discs large MAGUK scaffold protein 3) | -0.349 | 2.47 | -0.122
POF1B (POF1B actin binding protein) | 0.737 | 1.14 | 0.696
ADTRP (androgen dependent TFPI regulating protein) | -0.0213 | 2.88 | -0.293
TRAF6 (TNF receptor associated factor 6) | -0.0976 | 1.65 | -0.367
MAB21L2 (mab-21 like 2) | -0.357 | 1.36 | -0.48
PTPRT (protein tyrosine phosphatase receptor type T) | 0.876 | 0.602 | 0.954
ARPC1A (actin related protein 2/3 complex subunit 1A) | -0.462 | 3.06 | -0.407
TRMT2A (tRNA methyltransferase 2A) | -0.181 | 3.43 | -0.196
ADAMDEC1 (ADAM like decysin 1) | -0.259 | 1.94 | -0.149
ZNF382 (zinc finger protein 382) | 0.856 | 2.24 | 0.72
LBX1 (ladybird homeobox 1) | -0.181 | 2.76 | -0.0359
PPP5C (protein phosphatase 5 catalytic subunit) | -0.12 | 2.72 | -0.101
SEC24C (SEC24 homolog C, COPII component) | 0.15 | 1.67 | 0.187
OR1J2 (olfactory receptor family 1 subfamily J member 2) | -0.514 | 2.86 | -0.4
OR1J2 (olfactory receptor family 1 subfamily J member 2) | 0.839 | 3.26 | 0.786
PIBF1 (progesterone immunomodulatory binding factor 1) | 0.345 | 1.79 | 0.459
DLEU1 (deleted in lymphocytic leukemia 1) | -0.687 | 2.64 | -0.626
PDHX (pyruvate dehydrogenase complex component X) | 0.296 | 2.84 | 0.41
NAXD (NAD(P)HX dehydratase) | 0.259 | 2.46 | 0.187
TP53INP1 (tumor protein p53 inducible nuclear protein 1) | 0.324 | 1.46 | 0.361
CLDN18 (claudin 18) | 0.23 | 3.76 | 0.229
HSPBP1 (HSPA (Hsp70) binding protein 1) | -0.522 | 3.05 | -0.332
FUCA2 (alpha-L-fucosidase 2) | -0.325 | 2.8 | -0.432
SURF4 (surfeit 4) | 0.0931 | 1.71 | 0.0301
ANXA2P1 (annexin A2 pseudogene 1) | -0.559 | 3.36 | -0.616
GALK1 (galactokinase 1) | 0.104 | 3.76 | 0.218
ADCY9 (adenylate cyclase 9) | -0.353 | 2.05 | -0.342
LACTB2 (lactamase beta 2) | 0.181 | 1.28 | -0.247
GRAMD1B (GRAM domain containing 1B) | -0.686 | 2.77 | -0.57
NUDT21 (nudix hydrolase 21) | -0.659 | 3.28 | -0.627
COLEC11 (collectin subfamily member 11) | -0.571 | 2.29 | -0.631
PCDHA10 (protocadherin alpha 10) | 0.718 | 0.94 | 0.407
SKP2 (S-phase kinase associated protein 2) | -0.41 | 3.47 | -0.469
RWDD2B (RWD domain containing 2B) | -0.291 | 1.71 | -0.217
ACVR2A (activin A receptor type 2A) | 0.449 | 1.77 | 0.456
IL15 (interleukin 15) | 0.0571 | 0.964 | -0.374
KHDRBS1 | 0.353 | 1.49 | 0.268
EVA1B (eva-1 homolog B) | -0.629 | 2.86 | -0.5
PSD3 (pleckstrin and Sec7 domain containing 3) | -0.309 | 2.28 | -0.264
EMC6 (ER membrane protein complex subunit 6) | 0.732 | 2.88 | 0.6
ABI3BP (ABI family member 3 binding protein) | -0.258 | 2.04 | -0.0264
SLC19A2 | -0.0638 | 1.77 | -0.0978
NDNF (neuron derived neurotrophic factor) | 0.0585 | 1.78 | 0.493
CIP2A (cellular inhibitor of PP2A) | -0.102 | 3.48 | 0.0591
PODNL1 (podocan like 1) | -0.0965 | 2.09 | -0.375
GRID1 (glutamate ionotropic receptor delta type subunit 1) | 0.0399 | 3.16 | -0.098
SEMG2 (semenogelin 2) | 0.337 | 2.07 | 0.278
TMPRSS3 (transmembrane serine protease 3) | 0.0666 | 1.62 | 0.146
CASP1 (caspase 1) | -0.808 | 3.05 | -0.838
TIMP1 (TIMP metallopeptidase inhibitor 1) | -0.604 | 2.5 | -0.519
RPS27L (ribosomal protein S27 like) | 0.288 | 3.11 | 0.479
SERPINB8 (serpin family B member 8) | 0.224 | 2.18 | 0.293
GPAA1 (glycosylphosphatidylinositol anchor attachment 1) | 0.286 | 2.27 | 0.371
GP2 (glycoprotein 2) | 0.782 | 1.81 | 0.638
POLD2 (DNA polymerase delta 2, accessory subunit) | -0.184 | 2.16 | 0.053
MED10 (mediator complex subunit 10) | 0.0316 | 2.92 | 0.06
MMP27 (matrix metallopeptidase 27) | 0.414 | 1.73 | 0.423
SIRT5 (sirtuin 5) | -0.537 | 3.26 | -0.389

Targets listed so far whose target name begins with D or d (2):
gene knocked down | mean correlation with KSR1 profile | mean distance from KSR1 profile | KSR1 correlation, replicate 1
DLG3 (discs large MAGUK scaffold protein 3) | -0.349 | 2.47 | -0.122
DLEU1 (deleted in lymphocytic leukemia 1) | -0.687 | 2.64 | -0.626
